Data published in patent publication US7598046B2 (priority 2003, dated 2009).
No constants are given. Whether binding was seen depends on the method and setting. Some binding calls cover weakened binding; strength is not graded here.

Protein sequences, listed by entry. Tags and fused reporters are not part of them. Residues count along the entry.
UniProt P35951, residues 22-862: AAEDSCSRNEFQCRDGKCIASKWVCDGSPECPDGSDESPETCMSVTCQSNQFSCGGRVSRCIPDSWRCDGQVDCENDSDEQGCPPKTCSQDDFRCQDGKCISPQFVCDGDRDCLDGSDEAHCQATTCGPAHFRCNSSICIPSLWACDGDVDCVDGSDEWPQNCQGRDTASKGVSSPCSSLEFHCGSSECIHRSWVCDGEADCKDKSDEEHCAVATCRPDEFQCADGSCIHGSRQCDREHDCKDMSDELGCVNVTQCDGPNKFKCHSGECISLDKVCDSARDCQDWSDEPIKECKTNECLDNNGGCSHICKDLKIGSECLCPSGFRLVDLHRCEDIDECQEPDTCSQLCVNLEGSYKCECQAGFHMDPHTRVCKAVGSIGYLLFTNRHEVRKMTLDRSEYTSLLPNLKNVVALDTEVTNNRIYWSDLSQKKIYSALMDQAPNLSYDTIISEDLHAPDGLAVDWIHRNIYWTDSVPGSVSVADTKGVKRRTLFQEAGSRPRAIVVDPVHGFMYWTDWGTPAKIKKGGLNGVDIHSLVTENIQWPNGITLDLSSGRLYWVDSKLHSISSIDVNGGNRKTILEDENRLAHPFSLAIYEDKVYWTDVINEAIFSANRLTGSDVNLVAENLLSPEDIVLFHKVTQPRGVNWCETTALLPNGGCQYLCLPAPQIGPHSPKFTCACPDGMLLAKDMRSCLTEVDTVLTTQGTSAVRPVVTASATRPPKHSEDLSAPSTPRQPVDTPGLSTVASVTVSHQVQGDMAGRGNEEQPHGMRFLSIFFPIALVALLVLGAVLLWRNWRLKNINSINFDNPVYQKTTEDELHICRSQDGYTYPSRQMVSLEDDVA
UniProt P04114, residues 28-4563: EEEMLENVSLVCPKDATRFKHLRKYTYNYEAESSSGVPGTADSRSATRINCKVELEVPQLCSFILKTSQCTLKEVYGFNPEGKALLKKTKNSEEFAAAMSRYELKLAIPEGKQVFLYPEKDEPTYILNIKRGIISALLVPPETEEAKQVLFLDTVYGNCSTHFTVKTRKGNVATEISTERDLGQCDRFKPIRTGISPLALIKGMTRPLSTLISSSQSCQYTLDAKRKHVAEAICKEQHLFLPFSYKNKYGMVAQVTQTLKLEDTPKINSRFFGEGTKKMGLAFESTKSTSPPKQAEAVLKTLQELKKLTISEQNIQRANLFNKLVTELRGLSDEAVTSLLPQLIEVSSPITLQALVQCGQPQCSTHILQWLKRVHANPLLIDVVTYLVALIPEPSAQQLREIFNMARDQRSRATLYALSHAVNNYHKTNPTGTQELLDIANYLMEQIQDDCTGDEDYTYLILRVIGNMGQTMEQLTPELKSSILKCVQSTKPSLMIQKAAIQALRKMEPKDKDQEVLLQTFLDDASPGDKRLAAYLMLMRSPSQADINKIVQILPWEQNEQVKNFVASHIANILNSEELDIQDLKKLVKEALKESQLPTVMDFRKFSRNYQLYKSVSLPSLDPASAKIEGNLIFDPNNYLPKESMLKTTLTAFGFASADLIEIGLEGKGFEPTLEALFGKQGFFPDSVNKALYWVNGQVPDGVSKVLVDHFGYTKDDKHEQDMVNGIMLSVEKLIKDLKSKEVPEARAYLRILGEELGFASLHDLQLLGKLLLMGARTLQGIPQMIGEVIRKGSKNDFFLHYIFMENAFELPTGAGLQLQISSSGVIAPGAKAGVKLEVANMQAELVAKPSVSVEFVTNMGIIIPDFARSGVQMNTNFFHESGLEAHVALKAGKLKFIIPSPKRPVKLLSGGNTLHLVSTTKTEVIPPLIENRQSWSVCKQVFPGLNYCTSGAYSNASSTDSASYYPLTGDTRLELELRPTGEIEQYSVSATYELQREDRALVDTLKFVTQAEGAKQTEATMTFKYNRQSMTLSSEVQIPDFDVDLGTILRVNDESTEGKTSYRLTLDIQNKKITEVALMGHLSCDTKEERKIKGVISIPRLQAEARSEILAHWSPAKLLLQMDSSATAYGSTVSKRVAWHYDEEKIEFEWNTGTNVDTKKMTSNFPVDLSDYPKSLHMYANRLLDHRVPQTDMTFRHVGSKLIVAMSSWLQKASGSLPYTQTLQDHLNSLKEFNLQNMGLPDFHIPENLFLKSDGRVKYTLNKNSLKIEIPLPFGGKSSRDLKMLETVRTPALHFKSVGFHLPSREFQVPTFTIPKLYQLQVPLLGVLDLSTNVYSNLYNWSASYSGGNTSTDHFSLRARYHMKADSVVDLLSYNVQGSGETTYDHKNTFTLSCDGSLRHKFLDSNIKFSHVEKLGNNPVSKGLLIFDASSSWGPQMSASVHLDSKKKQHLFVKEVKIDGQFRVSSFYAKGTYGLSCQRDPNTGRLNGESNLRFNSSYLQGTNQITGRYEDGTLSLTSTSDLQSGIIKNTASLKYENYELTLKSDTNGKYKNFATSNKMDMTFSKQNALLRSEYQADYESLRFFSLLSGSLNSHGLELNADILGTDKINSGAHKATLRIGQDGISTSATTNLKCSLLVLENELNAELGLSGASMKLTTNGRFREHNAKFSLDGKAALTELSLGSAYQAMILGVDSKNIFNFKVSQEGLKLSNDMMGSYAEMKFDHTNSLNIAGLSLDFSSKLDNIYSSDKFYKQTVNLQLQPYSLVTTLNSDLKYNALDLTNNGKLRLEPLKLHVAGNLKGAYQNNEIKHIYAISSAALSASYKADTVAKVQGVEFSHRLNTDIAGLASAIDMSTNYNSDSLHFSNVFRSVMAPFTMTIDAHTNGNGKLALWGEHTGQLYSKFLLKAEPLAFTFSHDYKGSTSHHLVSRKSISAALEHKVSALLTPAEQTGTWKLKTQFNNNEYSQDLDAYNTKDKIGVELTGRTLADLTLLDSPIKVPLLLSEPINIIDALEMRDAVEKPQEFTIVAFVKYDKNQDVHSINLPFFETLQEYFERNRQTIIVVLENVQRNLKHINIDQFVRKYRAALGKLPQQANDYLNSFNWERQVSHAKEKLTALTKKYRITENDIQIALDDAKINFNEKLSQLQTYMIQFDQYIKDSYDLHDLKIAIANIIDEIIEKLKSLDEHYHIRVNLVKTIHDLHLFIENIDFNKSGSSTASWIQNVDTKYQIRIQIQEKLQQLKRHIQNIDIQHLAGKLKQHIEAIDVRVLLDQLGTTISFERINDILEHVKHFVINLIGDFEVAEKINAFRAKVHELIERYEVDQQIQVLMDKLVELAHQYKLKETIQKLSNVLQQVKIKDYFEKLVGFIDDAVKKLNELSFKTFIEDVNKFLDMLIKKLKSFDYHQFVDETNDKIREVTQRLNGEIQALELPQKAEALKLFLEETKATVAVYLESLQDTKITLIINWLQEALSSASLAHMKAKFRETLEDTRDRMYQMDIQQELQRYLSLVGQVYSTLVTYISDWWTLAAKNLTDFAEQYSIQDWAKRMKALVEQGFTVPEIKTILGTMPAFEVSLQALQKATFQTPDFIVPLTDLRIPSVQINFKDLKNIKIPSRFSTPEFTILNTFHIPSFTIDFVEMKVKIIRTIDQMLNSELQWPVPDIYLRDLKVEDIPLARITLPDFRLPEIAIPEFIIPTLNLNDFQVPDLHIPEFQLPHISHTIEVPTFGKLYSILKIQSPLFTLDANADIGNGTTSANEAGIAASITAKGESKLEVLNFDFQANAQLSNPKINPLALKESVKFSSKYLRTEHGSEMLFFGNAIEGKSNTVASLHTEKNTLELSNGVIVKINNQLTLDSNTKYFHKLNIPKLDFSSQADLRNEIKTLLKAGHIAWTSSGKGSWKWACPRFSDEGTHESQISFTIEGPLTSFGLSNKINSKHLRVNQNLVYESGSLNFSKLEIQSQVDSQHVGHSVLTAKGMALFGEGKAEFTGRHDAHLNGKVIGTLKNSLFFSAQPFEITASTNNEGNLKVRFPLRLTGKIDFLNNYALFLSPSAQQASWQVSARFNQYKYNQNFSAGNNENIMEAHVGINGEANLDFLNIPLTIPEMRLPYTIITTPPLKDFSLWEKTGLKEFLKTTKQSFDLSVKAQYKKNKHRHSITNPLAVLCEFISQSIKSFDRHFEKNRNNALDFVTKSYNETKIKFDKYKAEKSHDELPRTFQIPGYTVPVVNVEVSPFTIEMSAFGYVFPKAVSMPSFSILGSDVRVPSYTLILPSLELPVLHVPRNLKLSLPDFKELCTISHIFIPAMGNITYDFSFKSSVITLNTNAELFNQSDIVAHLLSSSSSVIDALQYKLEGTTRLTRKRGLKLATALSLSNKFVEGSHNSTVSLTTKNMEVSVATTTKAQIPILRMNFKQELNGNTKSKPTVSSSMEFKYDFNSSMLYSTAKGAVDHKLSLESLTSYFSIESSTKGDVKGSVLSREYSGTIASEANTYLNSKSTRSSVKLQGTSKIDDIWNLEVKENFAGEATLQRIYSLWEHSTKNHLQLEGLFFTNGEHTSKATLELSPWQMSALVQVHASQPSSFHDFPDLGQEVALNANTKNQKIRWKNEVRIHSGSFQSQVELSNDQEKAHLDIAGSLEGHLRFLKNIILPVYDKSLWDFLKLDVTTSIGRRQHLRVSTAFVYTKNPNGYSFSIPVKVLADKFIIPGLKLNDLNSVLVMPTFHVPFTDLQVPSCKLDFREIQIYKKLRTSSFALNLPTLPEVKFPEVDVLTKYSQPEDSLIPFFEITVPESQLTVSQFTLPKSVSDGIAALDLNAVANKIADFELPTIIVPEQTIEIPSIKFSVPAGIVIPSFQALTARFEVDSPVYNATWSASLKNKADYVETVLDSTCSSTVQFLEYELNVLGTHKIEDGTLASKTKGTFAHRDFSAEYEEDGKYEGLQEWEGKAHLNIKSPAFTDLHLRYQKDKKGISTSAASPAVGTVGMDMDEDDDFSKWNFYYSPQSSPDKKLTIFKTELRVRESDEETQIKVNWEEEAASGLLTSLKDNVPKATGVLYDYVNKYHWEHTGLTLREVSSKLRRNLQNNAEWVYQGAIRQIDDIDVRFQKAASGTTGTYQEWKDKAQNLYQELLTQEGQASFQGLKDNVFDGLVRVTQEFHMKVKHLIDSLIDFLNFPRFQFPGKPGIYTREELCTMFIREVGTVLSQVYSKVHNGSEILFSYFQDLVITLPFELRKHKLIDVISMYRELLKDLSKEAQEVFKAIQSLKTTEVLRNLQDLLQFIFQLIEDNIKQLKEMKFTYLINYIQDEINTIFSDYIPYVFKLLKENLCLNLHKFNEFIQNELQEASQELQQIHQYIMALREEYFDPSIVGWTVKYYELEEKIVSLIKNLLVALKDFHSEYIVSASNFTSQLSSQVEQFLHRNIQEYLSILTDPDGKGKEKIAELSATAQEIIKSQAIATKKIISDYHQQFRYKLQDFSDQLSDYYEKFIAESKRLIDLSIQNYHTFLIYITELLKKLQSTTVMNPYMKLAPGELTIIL

Biological target: LDL receptor on mouse neuroblastoma N2a cells (sub-clones #23 and #60) (mouse) (UniProt P35951)
Assay: fluorescence microscopy of N2a sub-clones #23 and #60, on ice (surface binding) or 37 C (uptake)

DiI labeled LDL (Molecular Probes L-3482) (from UniProt P04114 28-4563)
binding: binds
